The values that follow come from PubChem BioAssay AID1487 (National Center for Advancing Translational Sciences (NCATS), 2009).

This assay is described as follows: qHTS Assay for Modulators of Lamin A Splicing. As to conditions: HeLa LMNA splicing GFP/RFP minigene ratio, 48 h. Put shortly: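 S3 HeLa stable clones carrying a lamin A-EGFP splicing minigene plus DsRed2 were seeded at 600 cells/well in Opti-MEM with 2% FBS, pin-dosed and incubated 48 h at 37°C. Acumen cytometry (488 nm) gave the GFP/RFP total-intensity ratio.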
In general terms: qHTS replaces the single test concentration by a dilution series.

Setting [1] is: measured here: RFP viability control channel.
Where [2] appears, read: measured here: GFP splicing reporter channel.

Some of the results follow. These are further read-outs of the screen, such as a control signal, another cell line or another target. No call is given for them. Most of these compounds were active or inconclusive in the main read-out, so they are no random draw. Words in brackets tell the shape of the fitted curve; partial curves, single points and poor fits give uncertain potencies.

What is called AC50 is the midpoint of the concentration-response curve, whichever way the signal moves. Take `Nc1ccc(Nc2nc(-c3ccncc3)cs2)cc1`: the AC50 under setting [1] was 14.1 µM [rising, single point].

For the molecule `CCN(Cc1ccncc1)Cc1c(O)ccc2cc(Br)ccc12`, the AC50 under setting [2] is 0.282 µM [falling, single point].

`NCCC[C@H](N)CC(=O)N[C@H]1CNC(=O)[C@@H]([C@@H]2C[C@H](O)N=C(N)N2)NC(=O)/C(=C/NC(N)=O)NC(=O)[C@@H](CO)NC(=O)[C@@H](CO)NC1=O`: the half-maximal activity concentration (AC50) under setting [1] is 0.398 µM [rising, single point].

Consider `CCCCCCC(=O)N(O)C1CC(=O)N(Cc2ccccc2)C1=O` (configuration not stated), for which the AC50 under setting [1] was 11.2 µM [rising, partial curve].

Consider `CN(C)CCCC(C)(O)C(C)(C)c1ccccc1` (configuration not stated), for which the AC50 under setting [1] was 0.00501 µM [falling, full curve, poor fit].

`Oc1cccc(Nc2nc(NCC3CCCO3)c3ccccc3n2)c1` (configuration not stated): the AC50 is, setting by setting: under setting [2], 35.5 µM [rising, single point]; under setting [1], 20 µM [rising, single point].

For the molecule `CCCCN(C)C(=O)c1ccc2c(c1)N(Cc1cccc(F)c1)C(=O)c1ccccc1S2`, the AC50 under setting [2] is 3.16 µM [rising, partial curve].

`O=C(Nc1nccs1)c1cc(-c2ccco2)nc2ccccc12`: the AC50 under setting [2] was 8.91 µM [rising, partial curve, poor fit] and the AC50 under setting [1] was 6.31 µM [rising, partial curve].

For the molecule `CC(C)c1ccc(-c2nnn(CCC#N)n2)cc1`, the AC50 under setting [1] is 3.16 µM [falling, partial curve, poor fit].

In the case of `O=C(NC(=S)N1CCN(Cc2ccc3c(c2)OCO3)CC1)c1ccc(Cl)cc1`, the concentration at half-maximal activity (AC50) under setting [1] is 25.1 µM [rising, single point].

`O=C(COC(=O)C1(c2ccc(F)cc2)CCCC1)N1CCN(C(=O)c2ccco2)CC1`: the AC50 under setting [1] is 20 µM [rising, partial curve].

With `O=C(COC(=O)c1ccco1)Nc1ccc2c(c1)OCCO2`, the AC50 under setting [1] was 3.16 µM [rising, single point].

In the case of `CCOC(=O)c1ccc(Nc2nn3c(=O)c4ccccc4nc3s2)cc1`, the half-maximal activity concentration (AC50) was 14.1 µM [falling, single point] under setting [2] and 20 µM [falling, single point] under setting [1].

`COc1cc(C(F)(F)F)nc2c(Br)c(C(C)(C)C)nn12`: the AC50 under setting [2] was 35.5 µM [falling, single point].

For `Cc1ccc(CNC(=O)c2ccc(CS(=O)(=O)Cc3ccc(C)cc3)o2)cc1`, under setting [1], the AC50 was 0.00316 µM [falling, full curve, poor fit].

`O=C(c1cnc(N2CCN(c3ccccn3)CC2)c2ccccc12)N1CCN(c2cccc(Cl)c2)CC1`: the AC50 was 3.98 µM [falling, single point] under setting [2] and 0.158 µM [falling, partial curve, poor fit] under setting [1].

Consider `O=C(Nc1nc(-c2ccccc2)cs1)c1cccnc1`, for which the AC50 under setting [1] was 31.6 µM [rising, single point].

For `COc1cc(/C=C2\CCc3ccccc3C2=O)cc(OC)c1OC`, under setting [1], the AC50 is 15.8 µM [rising, partial curve].

Turning to `CCOCCCNC(=O)/C(C#N)=C/c1ccc(Cl)c([N+](=O)[O-])c1`, the AC50 under setting [1] is 35.5 µM [rising, single point].

With `Cc1cc2cc(CN(CC3CCCO3)C(=S)Nc3ccccc3)c(=O)[nH]c2cc1C` (configuration not stated), the AC50 under setting [1] is 7.94 µM [rising, single point].

Turning to `O=C(CCC1N=C2c3ccccc3N=C(SCC(=O)Nc3ccc(F)cc3)N2C1=O)NCc1ccco1` (configuration not stated), the AC50 reads like this: under setting [2], 35.5 µM [falling, single point]; under setting [1], 35.5 µM [falling, partial curve, poor fit].

Take `CCCCOc1ccc(-c2nnc(-c3ccncc3)o2)cc1`: the AC50 under setting [1] was 25.1 µM [rising, single point].

Take `COc1cc2c(=O)n(Cc3ccco3)c(=O)n(CC(=O)c3cccc(Br)c3)c2cc1OC`: under setting [1], the AC50 is 0.0251 µM [falling, single point].

Consider `CC(C)(C)c1ccc(C(=O)NC(=S)Nc2ccc(N3CCOCC3)cc2)cc1`, for which the AC50 under setting [1] is 7.94 µM [rising, partial curve, poor fit].

Consider `CCN1C(=O)/C(=C\c2nc3ccccc3c(=O)n2-c2ccccc2)c2ccccc21`, for which, under setting [1], the AC50 was 25.1 µM [rising, single point].

Consider `Nc1c(S(=O)(=O)O)cc(Nc2ccc(Nc3nc(Cl)nc(Nc4ccc(S(=O)(=O)O)cc4)n3)c(S(=O)(=O)O)c2)c2c1C(=O)c1ccccc1C2=O`, for which the AC50 reads like this: under setting [2], 4.47 µM [falling, partial curve, poor fit]; under setting [1], 3.55 µM [falling, full curve, poor fit].

Take `O=C(NCC1CCCO1)c1ccc(COc2ccc(Br)cc2)cc1` (configuration not stated): the AC50 under setting [1] is 11.2 µM [rising, partial curve].

Consider `N#Cc1c(NC(=O)CSc2nnc(-c3ccncc3)n2CC2CCCO2)sc2c1CCCC2` (configuration not stated), for which the AC50 runs as follows: under setting [2], 7.94 µM [rising, partial curve, poor fit]; under setting [1], 11.2 µM [rising, partial curve, poor fit].

`CC(=O)c1ccc(NC(=O)C(C)Nc2ccc(Cl)cc2)cc1` (configuration not stated): the AC50 under setting [2] is 5.62 µM [rising, partial curve] and the AC50 under setting [1] is 0.0224 µM [rising, full curve, poor fit].

For `O=C(CCCN1C(=O)c2cccc3cccc(c23)C1=O)NC1CCS(=O)(=O)C1` (configuration not stated), the AC50 reads like this: under setting [2], 25.1 µM [falling, partial curve]; under setting [1], 31.6 µM [falling, partial curve].

For the molecule `CC(=O)N1CCN(Cc2nc3cc(Cl)ccc3c(=O)[nH]2)CC1`, the AC50 under setting [2] was 0.1 µM [falling, full curve] and the AC50 under setting [1] was 0.0178 µM [falling, full curve].

Regarding `CN(C)CC#Cc1cncc(C(=O)NNC(=O)Nc2ccc(Cl)cc2)c1`, the AC50 under setting [1] was 3.98 µM [rising, single point].

As for `O=C(CN1C(=O)/C(=C/c2cccc(Br)c2)SC1=S)NC1=NCCS1`, the AC50 under setting [1] is 4.47 µM [rising, partial curve, poor fit].

On to `COc1ccc2nc(NC(=O)c3ccc(NS(=O)(=O)c4cccs4)cc3)sc2c1`, for which the AC50 under setting [1] was 14.1 µM [rising, single point].

For the molecule `c1csc(CNc2ncnc3nc[nH]c23)c1`, the AC50 under setting [1] is 15.8 µM [rising, single point].

For `COC(=O)C(C)(C)ONC(=O)Nc1ccccc1Cl`, the concentration at half-maximal activity (AC50) under setting [1] was 3.55 µM [falling, partial curve].

In the case of `Cc1ccc(-n2ncc3c(=O)n(CC(=O)NCc4ccco4)cnc32)cc1C`, the AC50 under setting [1] was 10 µM [rising, partial curve, poor fit].

Regarding `C=CCn1c(COc2ccccc2F)nnc1SCC(=O)c1c[nH]c2ccccc12`, the AC50 runs as follows: under setting [2], 12.6 µM [rising, partial curve]; under setting [1], 14.1 µM [rising, partial curve].

Regarding `Cc1ccc(-c2csc3nc[nH]c(=S)c23)cc1C`, the AC50 reads like this: under setting [2], 20 µM [falling, partial curve, poor fit]; under setting [1], 17.8 µM [falling, partial curve, poor fit].

In the case of `O=C(O)c1ccc(/C=C/c2nc3sc4c(c3c(=O)[nH]2)CCC4)cc1`, the AC50 under setting [2] is 1.12 µM [rising, partial curve].

In the case of `COc1ccc(NC(=O)/C(C#N)=C\c2ccc(N3CCOCC3)o2)cc1`, the AC50 under setting [2] is 35.5 µM [falling, single point] and the AC50 under setting [1] was 25.1 µM [falling, partial curve, poor fit].

Regarding `COc1ccc(C)cc1NC(=O)CSc1nnc(COc2ccc(Cl)cc2)n1Cc1ccco1`, the AC50 under setting [1] was 8.91 µM [rising, partial curve, poor fit].

On to `O=S(=O)(/C=C/c1ccccc1)Nc1ccc2c(c1)OCO2`, for which the AC50 is 14.1 µM [rising, partial curve] under setting [2] and 20 µM [rising, partial curve, poor fit] under setting [1].

Consider `Cc1sc2ncnc(N3CCCCC3C)c2c1C` (configuration not stated), for which the AC50 under setting [1] is 31.6 µM [rising, single point].

Regarding `COC(=O)c1cc(=O)n(CCc2ccccc2)c(=Nc2ccc(F)cc2)s1`, the AC50 under setting [1] was 22.4 µM [rising, single point].

For the molecule `CC(=O)c1ccc(NC(=O)COC(=O)c2nc(Cl)ccc2Cl)cc1`, the AC50 under setting [1] is 35.5 µM [rising, single point].

For the molecule `Cc1c(C(=O)NCc2ccc(Cl)cc2)sc2nc3n(c(=O)c12)CCCCC3`, under setting [2], the AC50 is 0.00316 µM [falling, full curve].

On to `CC(C)Oc1ccc(C(=O)NC2=NCCS2)cc1`, for which the AC50 under setting [2] is 35.5 µM [rising, partial curve, poor fit].

As for `CCSc1nnc(-c2ccc(S(=O)(=O)NCc3cccs3)cc2)o1`, the AC50 runs as follows: under setting [2], 17.8 µM [rising, single point]; under setting [1], 35.5 µM [rising, single point].

In the case of `COc1ccc(NC(=S)Nc2cccc3cnccc23)cc1`, the AC50 under setting [1] was 1 µM [rising, partial curve, poor fit].

`Clc1ccc2oc3c(Cl)ncnc3c2c1`: under setting [1], the AC50 was 35.5 µM [rising, single point].

Consider `O=C(CN1C(=O)c2ccccc2S1(=O)=O)Nc1ccccc1`, for which, under setting [2], the AC50 is 0.0141 µM [rising, full curve, poor fit].

With `Cc1ccc(S(=O)(=O)N2CCN(C)CC2)c(C)c1N(C)S(=O)(=O)c1ccc(Cl)cc1`, the AC50 under setting [1] was 15.8 µM [rising, single point].

Take `Cc1cccc(C(=O)N2CCc3cc(CNC(=O)COc4ccc(Cl)cc4)ccc32)c1`: the AC50 under setting [1] is 7.94 µM [rising, partial curve].

As for `O=c1[nH]c(CSc2nnnn2-c2ccc(Cl)cc2)nc2ccccc12`, the AC50 under setting [1] was 0.00447 µM [falling, full curve, poor fit].

Regarding `N#Cc1c(C#N)c(-c2ccccc2)n(-c2ccccc2)c1N`, the AC50 runs as follows: under setting [2], 8.91 µM [rising, partial curve]; under setting [1], 11.2 µM [rising, partial curve].
